PubChem BioAssay AID1259254 | NCATS | 2017

Screen: 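Finding genes that stop cells copying their DNA twice in one cycle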 (primary screen)
System: human HCT116 colorectal cancer cells
Reagent: single siRNA against human genes
Time to read-out: 3 days
Measured: 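Nuclei stained with Hoechst and imaged; cell-cycle phase assigned by DNA content; G2 share scaled per plate, non-targeting siRNA 0%, GMNN siRNA 100%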
Reading the numbers: G2 robust z-score and G2 cells, % of GMNN control: higher = more G2 cells, more excess DNA replication; raw share of cells in G2: higher = larger share of cells with G2 DNA content
Hit rule: 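Active siRNAs have a G2 robust z of 5 or more median absolute deviations over the median, which in these data means about 38% or higher of GMNN control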
Here is one part, drawn at random, of about 59,000 reagents. Over the whole deposit, about 1,550 (2.6%) got an active call. 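G2 share is only a proxy for re-replication; each gene was hit by three separate siRNAs, and active genes were retested.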 Raw values are not corrected between plates. Reagents against one gene are numbered here. Not stated in the record: the amount of reagent.

| gene | siRNA no. | G2 robust z-score | G2 cells, % of GMNN control | raw share of cells in G2 (%) | Call |
| --- | --- | --- | --- | --- | --- |
| PPP2R3C (protein phosphatase 2 regulatory subunit B''gamma) | 1 | -0.429 | -0.0486 | 4.78 | inactive |
| PPP2R3C (protein phosphatase 2 regulatory subunit B''gamma) | 2 | 1.16 | 11.1 | 7.65 | inactive |
| PPP2R3C (protein phosphatase 2 regulatory subunit B''gamma) | 3 | 0.551 | 6.85 | 5.56 | inactive |
| KCTD10 (potassium channel tetramerization domain containing 10) | 1 | 3.34 | 26.5 | 16.5 | inactive |
| KCTD10 (potassium channel tetramerization domain containing 10) | 2 | 0.768 | 8.37 | 7.89 | inactive |
| KCTD10 (potassium channel tetramerization domain containing 10) | 3 | 7.33 | 54.5 | 23.9 | active |
| STC1 (stanniocalcin 1) | 1 | 3.22 | 25.6 | 14.3 | inactive |
| STC1 (stanniocalcin 1) | 2 | 6.8 | 50.8 | 22 | active |
| STC1 (stanniocalcin 1) | 3 | -0.627 | -1.44 | 3.48 | inactive |
| LAMC1 (laminin subunit gamma 1) | 1 | 0.256 | 4.77 | 5.35 | inactive |
| LAMC1 (laminin subunit gamma 1) | 2 | -0.69 | -1.89 | 3.96 | inactive |
| LAMC1 (laminin subunit gamma 1) | 3 | 2.33 | 19.4 | 10.1 | inactive |
| KRT4 (keratin 4) | 1 | 4.76 | 36.5 | 18.3 | inactive |
| KRT4 (keratin 4) | 2 | -0.228 | 1.37 | 6.2 | inactive |
| KRT4 (keratin 4) | 3 | 0.929 | 9.51 | 7.69 | inactive |
| HSPA8P14 (heat shock protein family A (Hsp70) member 8 pseudogene 14) | 1 | 2.4 | 19.8 | 11.3 | inactive |
| HSPA8P14 (heat shock protein family A (Hsp70) member 8 pseudogene 14) | 2 | -0.209 | 1.5 | 3.99 | inactive |
| HSPA8P14 (heat shock protein family A (Hsp70) member 8 pseudogene 14) | 3 | -0.673 | -1.77 | 2.52 | inactive |
| MOGAT1 (monoacylglycerol O-acyltransferase 1) | 1 | -0.0683 | 2.49 | 6.83 | inactive |
| MOGAT1 (monoacylglycerol O-acyltransferase 1) | 2 | 3.9 | 30.4 | 16 | inactive |
| MOGAT1 (monoacylglycerol O-acyltransferase 1) | 3 | -0.248 | 1.22 | 5.49 | inactive |
| NAP1L3 (nucleosome assembly protein 1 like 3) | 1 | 1.8 | 15.6 | 11.6 | inactive |
| NAP1L3 (nucleosome assembly protein 1 like 3) | 2 | 2.39 | 19.8 | 12 | inactive |
| NAP1L3 (nucleosome assembly protein 1 like 3) | 3 | -0.0658 | 2.5 | 4.26 | inactive |
| TRIM64 (tripartite motif containing 64) | 1 | 0.839 | 8.87 | 9.79 | inactive |
| TRIM64 (tripartite motif containing 64) | 2 | -0.644 | -1.56 | 4.3 | inactive |
| TRIM64 (tripartite motif containing 64) | 3 | -0.429 | -0.0514 | 4.46 | inactive |
| ARHGEF3 (Rho guanine nucleotide exchange factor 3) | 1 | 1.77 | 15.4 | 9.75 | inactive |
| ARHGEF3 (Rho guanine nucleotide exchange factor 3) | 2 | 0.613 | 7.28 | 7.3 | inactive |
| ARHGEF3 (Rho guanine nucleotide exchange factor 3) | 3 | -0.0977 | 2.28 | 3.97 | inactive |
| TCP11L1 (t-complex 11 like 1) | 1 | -0.787 | -2.57 | 3.54 | inactive |
| TCP11L1 (t-complex 11 like 1) | 2 | -0.244 | 1.25 | 4.66 | inactive |
| TCP11L1 (t-complex 11 like 1) | 3 | 2.36 | 19.6 | 9.39 | inactive |
| G3BP1 (G3BP stress granule assembly factor 1) | 1 | -0.463 | -0.288 | 3.75 | inactive |
| G3BP1 (G3BP stress granule assembly factor 1) | 2 | -0.636 | -1.51 | 5.04 | inactive |
| G3BP1 (G3BP stress granule assembly factor 1) | 3 | -1.64 | -8.59 | 3.09 | inactive |
| H1-6 (H1.6 linker histone, cluster member) | 1 | -0.0437 | 2.66 | 6.55 | inactive |
| H1-6 (H1.6 linker histone, cluster member) | 2 | 0.484 | 6.37 | 6.42 | inactive |
| H1-6 (H1.6 linker histone, cluster member) | 3 | -0.854 | -3.04 | 2.33 | inactive |
| MT1M (metallothionein 1M) | 1 | -0.137 | 2 | 5.01 | inactive |
| MT1M (metallothionein 1M) | 2 | -0.341 | 0.568 | 3.56 | inactive |
| MT1M (metallothionein 1M) | 3 | 2.03 | 17.2 | 12.3 | inactive |
| IPO4 (importin 4) | 1 | 1.15 | 11.1 | 8.88 | inactive |
| IPO4 (importin 4) | 2 | -0.957 | -3.76 | 3.86 | inactive |
| IPO4 (importin 4) | 3 | 4.92 | 37.6 | 17.8 | inactive |
| WDR12 (WD repeat domain 12) | 1 | 2.17 | 18.2 | 11.5 | inactive |
| WDR12 (WD repeat domain 12) | 2 | 0.367 | 5.55 | 6.44 | inactive |
| WDR12 (WD repeat domain 12) | 3 | -0.755 | -2.34 | 2.39 | inactive |
| ERN1 (endoplasmic reticulum to nucleus signaling 1) | 1 | -0.165 | 1.81 | 6.15 | inactive |
| ERN1 (endoplasmic reticulum to nucleus signaling 1) | 2 | -0.144 | 1.95 | 5.9 | inactive |
| ERN1 (endoplasmic reticulum to nucleus signaling 1) | 3 | 0.112 | 3.75 | 4.88 | inactive |
| CRYAB (crystallin alpha B) | 1 | 5.68 | 43 | 18.9 | active |
| CRYAB (crystallin alpha B) | 2 | 0.682 | 7.77 | 7.73 | inactive |
| CRYAB (crystallin alpha B) | 3 | -0.364 | 0.406 | 5.14 | inactive |
| SMPX (small muscle protein X-linked) | 1 | -0.319 | 0.724 | 3.55 | inactive |
| SMPX (small muscle protein X-linked) | 2 | -0.982 | -3.94 | 2.93 | inactive |
| SMPX (small muscle protein X-linked) | 3 | 2.53 | 20.8 | 12.9 | inactive |
| MAP3K12 (mitogen-activated protein kinase kinase kinase 12) | 1 | -1.56 | -8.01 | 3.1 | inactive |
| MAP3K12 (mitogen-activated protein kinase kinase kinase 12) | 2 | -0.434 | -0.0869 | 5.16 | inactive |
| MAP3K12 (mitogen-activated protein kinase kinase kinase 12) | 3 | -0.317 | 0.739 | 3.92 | inactive |
| CHPT1 (choline phosphotransferase 1) | 1 | 0.367 | 5.55 | 6.65 | inactive |
| CHPT1 (choline phosphotransferase 1) | 2 | -0.554 | -0.932 | 6.02 | inactive |
| CHPT1 (choline phosphotransferase 1) | 3 | 0.871 | 9.1 | 7.7 | inactive |
| FAHD1 (FAH domain containing oxaloacetate decarboxylase 1) | 1 | 0.491 | 6.42 | 7.16 | inactive |
| FAHD1 (FAH domain containing oxaloacetate decarboxylase 1) | 2 | 1.68 | 14.8 | 9.56 | inactive |
| FAHD1 (FAH domain containing oxaloacetate decarboxylase 1) | 3 | -0.287 | 0.945 | 5.82 | inactive |
| FZD1 (frizzled class receptor 1) | 1 | 2.14 | 18 | 12.3 | inactive |
| FZD1 (frizzled class receptor 1) | 2 | 0.416 | 5.9 | 6.58 | inactive |
| FZD1 (frizzled class receptor 1) | 3 | -0.0386 | 2.7 | 4.1 | inactive |

11 successive records from above, quoted:
| gene | siRNA no. | G2 robust z-score | G2 cells, % of GMNN control | raw share of cells in G2 (%) | Call |
| --- | --- | --- | --- | --- | --- |
| KRT4 (keratin 4) | 1 | 4.76 | 36.5 | 18.3 | inactive |
| KRT4 (keratin 4) | 2 | -0.228 | 1.37 | 6.2 | inactive |
| KRT4 (keratin 4) | 3 | 0.929 | 9.51 | 7.69 | inactive |
| HSPA8P14 (heat shock protein family A (Hsp70) member 8 pseudogene 14) | 1 | 2.4 | 19.8 | 11.3 | inactive |
| HSPA8P14 (heat shock protein family A (Hsp70) member 8 pseudogene 14) | 2 | -0.209 | 1.5 | 3.99 | inactive |
| HSPA8P14 (heat shock protein family A (Hsp70) member 8 pseudogene 14) | 3 | -0.673 | -1.77 | 2.52 | inactive |
| MOGAT1 (monoacylglycerol O-acyltransferase 1) | 1 | -0.0683 | 2.49 | 6.83 | inactive |
| MOGAT1 (monoacylglycerol O-acyltransferase 1) | 2 | 3.9 | 30.4 | 16 | inactive |
| MOGAT1 (monoacylglycerol O-acyltransferase 1) | 3 | -0.248 | 1.22 | 5.49 | inactive |
| NAP1L3 (nucleosome assembly protein 1 like 3) | 1 | 1.8 | 15.6 | 11.6 | inactive |
| NAP1L3 (nucleosome assembly protein 1 like 3) | 2 | 2.39 | 19.8 | 12 | inactive |
